Experimental data from article doi:10.1101/2021.06.21.449265 (bioRxiv, 2021).
These are yes or no findings as the source states them, for the method shown. Some entries that bind do so weakly or less than the wild type.

B1: Fy-3 (C12orf4) (natural protein, human, UniProt Q9NQ89 1-552, looked up)
chain: MKKNRERFCNREREFVYKFKVGSQCLELRVPLKFPVQENASHLHGRLMLLHSLPCFIEKDLKEALTQFIEEESLSDYDRDAEASLAAVKSGEVDLHQLASTWAKAYAETTLEHARPEEPSWDEDFADVYHDLIHSPASETLLNLEHNYFVSISELIGERDVELKKLRERQGIEMEKVMQELGKSLTDQDVNSLAAQHFESQQDLENKWSNELKQSTAIQKQEYQEWVIKLHQDLKNPNNSSLSEEIKVQPSQFRESVEAIGRIYEEQRKLEESFTIHLGAQLKTMHNLRLLRADMLDFCKHKRNHRSGVKLHRLQTALSLYSTSLCGLVLLVDNRINSYSGIKRDFATVCQECTDFHFPRIEEQLEVVQQVVLYARTQRRSKLKESLDSGNQNGGNDDKTKNAERNYLNVLPGEFYITRHSNLSEIHVAFHLCVDDHVKSGNITARDPAIMGLRNILKVCCTHDITTISIPLLLVHDMSEEMTIPWCLRRAELVFKCVKGFMMEMASWDGGISRTVQFLVPQSISEEMFYQLSNMLPQIFRVSSTLTLTSKH
B2: Fy-4 (Cryzl1) (natural protein, human, UniProt O95825 1-349, looked up)
chain: MKGLYFQQSSTDEEITFVFQEKEDLPVTEDNFVKLQVKACALSQINTKLLAEMKMKKDLFPVGREIAGIVLDVGSKVSFFQPDDEVVGILPLDSEDPGLCEVVRVHEHYLVHKPEKVTWTEAAGSIRDGVRAYTALHYLSHLSPGKSVLIMDGASAFGTIAIQLAHHRGAKVISTACSLEDKQCLERFRPPIARVIDVSNGKVHVAESCLEETGGLGVDIVLDAGVRLYSKDDEPAVKLQLLPHKHDIITLLGVGGHWVTTEENLQLDPPDSHCLFLKGATLAFLNDEVWNLSNVQQGKYLCILKDVMEKLSTGVFRPQLDEPIPLYEAKVSMEAVQKNQGRKKQVVQF

What was measured:
Fy-2 CΔ53 (human) = target: T1, Fy-2 CΔ53 (human) (UniProt Q6ZMI0); assay: reconstitution and co-purification
T1 sequence: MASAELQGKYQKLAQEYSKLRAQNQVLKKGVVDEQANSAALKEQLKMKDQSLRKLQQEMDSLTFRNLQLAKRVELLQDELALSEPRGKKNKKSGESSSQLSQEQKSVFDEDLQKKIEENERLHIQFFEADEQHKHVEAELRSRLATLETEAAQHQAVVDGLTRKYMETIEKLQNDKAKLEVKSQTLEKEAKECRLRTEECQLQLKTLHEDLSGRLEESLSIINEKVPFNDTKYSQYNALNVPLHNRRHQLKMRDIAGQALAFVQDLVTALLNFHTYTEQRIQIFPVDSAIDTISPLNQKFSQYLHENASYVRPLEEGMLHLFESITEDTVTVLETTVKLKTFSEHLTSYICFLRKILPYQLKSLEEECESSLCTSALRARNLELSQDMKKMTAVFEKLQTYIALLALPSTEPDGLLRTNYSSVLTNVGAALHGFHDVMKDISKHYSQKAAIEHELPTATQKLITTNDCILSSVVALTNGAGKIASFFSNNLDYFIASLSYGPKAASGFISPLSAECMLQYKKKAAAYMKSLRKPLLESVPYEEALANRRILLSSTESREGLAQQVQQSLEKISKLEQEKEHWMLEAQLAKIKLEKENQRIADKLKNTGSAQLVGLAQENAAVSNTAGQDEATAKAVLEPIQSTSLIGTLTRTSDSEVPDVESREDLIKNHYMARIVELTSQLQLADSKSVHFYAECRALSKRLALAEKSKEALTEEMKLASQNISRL

Fy-2 CΔ84 (human) = target: T2, Fy-2 CΔ84 (human) (UniProt Q6ZMI0); assay: reconstitution and co-purification
T2 sequence: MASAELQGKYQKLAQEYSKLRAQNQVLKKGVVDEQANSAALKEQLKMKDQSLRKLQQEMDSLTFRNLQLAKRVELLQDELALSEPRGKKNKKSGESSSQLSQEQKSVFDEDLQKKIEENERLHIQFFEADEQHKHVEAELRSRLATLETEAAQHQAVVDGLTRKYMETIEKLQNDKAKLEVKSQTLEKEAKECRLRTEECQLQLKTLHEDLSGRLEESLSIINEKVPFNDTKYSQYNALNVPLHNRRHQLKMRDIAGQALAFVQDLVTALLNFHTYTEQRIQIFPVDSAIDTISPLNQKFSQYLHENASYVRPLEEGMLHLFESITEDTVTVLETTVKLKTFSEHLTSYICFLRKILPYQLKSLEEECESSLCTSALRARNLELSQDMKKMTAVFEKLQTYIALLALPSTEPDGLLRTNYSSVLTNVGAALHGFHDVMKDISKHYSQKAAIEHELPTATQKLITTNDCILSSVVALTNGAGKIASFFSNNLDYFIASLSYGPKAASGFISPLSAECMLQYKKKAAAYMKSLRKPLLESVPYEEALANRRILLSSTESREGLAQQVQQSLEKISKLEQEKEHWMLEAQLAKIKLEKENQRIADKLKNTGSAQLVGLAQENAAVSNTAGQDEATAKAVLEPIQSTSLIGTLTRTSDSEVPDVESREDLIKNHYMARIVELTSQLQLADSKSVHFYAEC

Binder	binding (Fy-2 CΔ53 (human))	binding (Fy-2 CΔ84 (human))
B1	binds	no binding
B2	binds	binds
